Measurements published in patent publication US11453841B2, “Functionalized branched alcohols as non-ionic sugar surfactants” (ExxonMobil Technology and Engineering Company, priority 2019, dated 2022).

Tested on: microorganisms
Assay: OECD 301F manometric respirometry biodegradability test
Conditions: 57 to 100 mg/L

For `O=C([O-])c1ccccc1.[Na+]` [Sodium Benzoate], the “Percent Biodegradation Mean” value (Day 1) was 22.51%, the “Percent Biodegradation Rep 1” value (Day 1) was 22.43% and the “Percent Biodegradation Rep 2” value (Day 1) was 21.14%. The “Percent Biodegradation Rep 3” value (Day 1) was 23.95%, the “Percent Biodegradation Mean” value (Day 2) was 57.98% and the “Percent Biodegradation Rep 1” value (Day 2) was 58.41%. For the same compound, the “Percent Biodegradation Rep 2” value (Day 2) was 57.65%, the “Percent Biodegradation Rep 3” value (Day 2) was 57.88% and the “Percent Biodegradation Mean” value (Day 3) was 60.95%. For the same compound, the “Percent Biodegradation Rep 1” value (Day 3) was 61.48%, the “Percent Biodegradation Rep 2” value (Day 3) was 60.26% and the “Percent Biodegradation Rep 3” value (Day 3) was 61.12%. For the same compound, the “Percent Biodegradation Mean” value (Day 4) was 70.56%, the “Percent Biodegradation Rep 1” value (Day 4) was 71.33% and the “Percent Biodegradation Rep 2” value (Day 4) was 69.35%. For the same compound, the “Percent Biodegradation Rep 3” value (Day 4) was 71.00%, the “Percent Biodegradation Mean” value (Day 5) was 76.88% and the “Percent Biodegradation Rep 1” value (Day 5) was 79.98%. The “Percent Biodegradation Rep 2” value (Day 5) was 75.69%, the “Percent Biodegradation Rep 3” value (Day 5) was 74.96% and the “Percent Biodegradation Mean” value (Day 6) was 80.89%. For the same compound, the “Percent Biodegradation Rep 1” value (Day 6) was 82.92%, the “Percent Biodegradation Rep 2” value (Day 6) was 81.01% and the “Percent Biodegradation Rep 3” value (Day 6) was 78.75%. For the same compound, the “Percent Biodegradation Mean” value (Day 7) was 84.60%, the “Percent Biodegradation Rep 1” value (Day 7) was 85.65% and the “Percent Biodegradation Rep 2” value (Day 7) was 84.56%. The “Percent Biodegradation Rep 3” value (Day 7) was 83.60%, the “Percent Biodegradation Mean” value (Day 8) was 87.11% and the “Percent Biodegradation Rep 1” value (Day 8) was 88.21%. For the same compound, the “Percent Biodegradation Rep 2” value (Day 8) was 86.83%, the “Percent Biodegradation Rep 3” value (Day 8) was 86.30% and the “Percent Biodegradation Mean” value (Day 9) was 89.08%. The “Percent Biodegradation Rep 1” value (Day 9) was 90.06%, the “Percent Biodegradation Rep 2” value (Day 9) was 88.89% and the “Percent Biodegradation Rep 3” value (Day 9) was 88.29%. For the same compound, the “Percent Biodegradation Mean” value (Day 10) was 90.28%, the “Percent Biodegradation Rep 1” value (Day 10) was 90.68% and the “Percent Biodegradation Rep 2” value (Day 10) was 90.11%. For the same compound, the “Percent Biodegradation Rep 3” value (Day 10) was 90.06%, the “Percent Biodegradation Mean” value (Day 11) was 91.03% and the “Percent Biodegradation Rep 1” value (Day 11) was 91.37%. The “Percent Biodegradation Rep 2” value (Day 11) was 90.72%, the “Percent Biodegradation Rep 3” value (Day 11) was 90.99% and the “Percent Biodegradation Mean” value (Day 12) was 91.58%. The “Percent Biodegradation Rep 1” value (Day 12) was 91.92%, the “Percent Biodegradation Rep 2” value (Day 12) was 91.23% and the “Percent Biodegradation Rep 3” value (Day 12) was 91.59%. For the same compound, the “Percent Biodegradation Mean” value (Day 13) was 92.04%, the “Percent Biodegradation Rep 1” value (Day 13) was 92.38% and the “Percent Biodegradation Rep 2” value (Day 13) was 91.66%. For the same compound, the “Percent Biodegradation Rep 3” value (Day 13) was 92.07%, the “Percent Biodegradation Mean” value (Day 14) was 92.51% and the “Percent Biodegradation Rep 1” value (Day 14) was 92.85%. For the same compound, the “Percent Biodegradation Rep 2” value (Day 14) was 92.11%, the “Percent Biodegradation Rep 3” value (Day 14) was 92.56% and the “Percent Biodegradation Mean” value (Day 15) was 92.92%. For the same compound, the “Percent Biodegradation Rep 1” value (Day 15) was 93.24%, the “Percent Biodegradation Rep 2” value (Day 15) was 92.48% and the “Percent Biodegradation Rep 3” value (Day 15) was 93.03%. The “Percent Biodegradation Mean” value (Day 16) was 93.16%, the “Percent Biodegradation Rep 1” value (Day 16) was 93.52% and the “Percent Biodegradation Rep 2” value (Day 16) was 92.69%. For the same compound, the “Percent Biodegradation Rep 3” value (Day 16) was 93.28%, the “Percent Biodegradation Mean” value (Day 17) was 93.41% and the “Percent Biodegradation Rep 1” value (Day 17) was 93.70%. For the same compound, the “Percent Biodegradation Rep 2” value (Day 17) was 92.93%, the “Percent Biodegradation Rep 3” value (Day 17) was 93.60% and the “Percent Biodegradation Mean” value (Day 18) was 93.81%. The “Percent Biodegradation Rep 1” value (Day 18) was 94.11%, the “Percent Biodegradation Rep 2” value (Day 18) was 93.32% and the “Percent Biodegradation Rep 3” value (Day 18) was 94.01%. For the same compound, the “Percent Biodegradation Mean” value (Day 19) was 94.12%, the “Percent Biodegradation Rep 1” value (Day 19) was 94.45% and the “Percent Biodegradation Rep 2” value (Day 19) was 93.59%. The “Percent Biodegradation Rep 3” value (Day 19) was 94.33%, the “Percent Biodegradation Mean” value (Day 20) was 94.33% and the “Percent Biodegradation Rep 1” value (Day 20) was 94.67%. For the same compound, the “Percent Biodegradation Rep 2” value (Day 20) was 93.79%, the “Percent Biodegradation Rep 3” value (Day 20) was 94.53% and the “Percent Biodegradation Mean” value (Day 21) was 94.57%. For the same compound, the “Percent Biodegradation Rep 1” value (Day 21) was 94.86%, the “Percent Biodegradation Rep 2” value (Day 21) was 93.98% and the “Percent Biodegradation Rep 3” value (Day 21) was 94.86%. For the same compound, the “Percent Biodegradation Mean” value (Day 22) was 94.72%, the “Percent Biodegradation Rep 1” value (Day 22) was 95.13% and the “Percent Biodegradation Rep 2” value (Day 22) was 94.10%. The “Percent Biodegradation Rep 3” value (Day 22) was 94.94%, the “Percent Biodegradation Mean” value (Day 23) was 94.91% and the “Percent Biodegradation Rep 1” value (Day 23) was 95.28%. For the same compound, the “Percent Biodegradation Rep 2” value (Day 23) was 94.30%, the “Percent Biodegradation Rep 3” value (Day 23) was 95.16% and the “Percent Biodegradation Mean” value (Day 24) was 94.98%. The “Percent Biodegradation Rep 1” value (Day 24) was 95.44%, the “Percent Biodegradation Rep 2” value (Day 24) was 94.30% and the “Percent Biodegradation Rep 3” value (Day 24) was 95.21%. The “Percent Biodegradation Mean” value (Day 25) was 95.09%, the “Percent Biodegradation Rep 1” value (Day 25) was 95.57% and the “Percent Biodegradation Rep 2” value (Day 25) was 94.36%. For the same compound, the “Percent Biodegradation Rep 3” value (Day 25) was 95.33%, the “Percent Biodegradation Mean” value (Day 26) was 95.25% and the “Percent Biodegradation Rep 1” value (Day 26) was 95.76%. The “Percent Biodegradation Rep 2” value (Day 26) was 94.50%, the “Percent Biodegradation Rep 3” value (Day 26) was 95.50% and the “Percent Biodegradation Mean” value (Day 27) was 95.35%. For the same compound, the “Percent Biodegradation Rep 1” value (Day 27) was 95.89%, the “Percent Biodegradation Rep 2” value (Day 27) was 94.58% and the “Percent Biodegradation Rep 3” value (Day 27) was 95.58%. For the same compound, the “Percent Biodegradation Mean” value (Day 28) was 95.36%, the “Percent Biodegradation Rep 1” value (Day 28) was 95.91% and the “Percent Biodegradation Rep 2” value (Day 28) was 94.59%. The “Percent Biodegradation Rep 3” value (Day 28) was 95.57%.
